Test results reported in patent US20030114646A1 (Human Genome Sciences, published 2003).
Results are given in words; binding and its absence hold for the method and conditions named.

Target: cathepsin B
Assay: protease inhibition assay with substrate, apparent Ki

B1: human Cystatin F (recombinant, produced in a baculovirus system) (other)
chain: GPSPDTCSQDLNSRVKPGFPKTIKTNDPGVLQAARYSVEKFNNCTNDMFLFKESRITRALVQIVKGLKYMLEVEIGRTTCKKNQHLRLDDCDFQTNHTLKQTLSCYSEVWVVPWLQHFEVPVLRCH
notes: 20-145 is used here; also called recombinant Cystatin F
With B1 the binding was “no binding (tested: much greater than 1000 nM)”.
